Assay results published in paper doi:10.1101/2022.11.30.518523.
These are yes or no findings as the source states them, for the method shown. Binding seen in cells or lysates may run through a third protein. Some binding calls cover weakened binding; strength is not graded here. Sequences can lack the tags named with a protein.

Molecular target: T1, Flag-tagged PIN1 (35S-PIN1-Flag) (Arabidopsis) (UniProt Q9C6B8)
T1 sequence: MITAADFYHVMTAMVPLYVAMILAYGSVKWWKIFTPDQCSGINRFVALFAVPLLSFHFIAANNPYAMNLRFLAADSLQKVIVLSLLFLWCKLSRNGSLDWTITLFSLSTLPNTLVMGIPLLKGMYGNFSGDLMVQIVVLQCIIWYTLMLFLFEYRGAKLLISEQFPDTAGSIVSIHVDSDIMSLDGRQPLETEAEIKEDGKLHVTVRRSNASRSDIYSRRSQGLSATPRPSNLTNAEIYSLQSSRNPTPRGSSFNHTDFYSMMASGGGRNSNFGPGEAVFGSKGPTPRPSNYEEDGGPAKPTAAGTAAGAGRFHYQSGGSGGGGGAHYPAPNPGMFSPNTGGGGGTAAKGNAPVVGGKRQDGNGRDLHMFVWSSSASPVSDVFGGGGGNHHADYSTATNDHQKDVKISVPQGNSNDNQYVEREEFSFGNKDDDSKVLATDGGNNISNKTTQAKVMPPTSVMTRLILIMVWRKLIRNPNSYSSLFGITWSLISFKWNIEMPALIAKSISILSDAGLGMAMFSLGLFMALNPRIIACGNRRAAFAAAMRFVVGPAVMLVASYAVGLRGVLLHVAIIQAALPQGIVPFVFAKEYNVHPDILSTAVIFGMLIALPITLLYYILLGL
Assay: co-IP

B1: HA-tagged TMK1 (35S-TMK1-HA) (receptor, UniProt P43298 24-942)
chain: DSDGDLSAMLSLKKSLNPPSSFGWSDPDPCKWTHIVCTGTKRVTRIQIGHSGLQGTLSPDLRNLSELERLELQWNNISGPVPSLSGLASLQVLMLSNNNFDSIPSDVFQGLTSLQSVEIDNNPFKSWEIPESLRNASALQNFSANSANVSGSLPGFLGPDEFPGLSILHLAFNNLEGELPMSLAGSQVQSLWLNGQKLTGDITVLQNMTGLKEVWLHSNKFSGPLPDFSGLKELESLSLRDNSFTGPVPASLLSLESLKVVNLTNNHLQGPVPVFKSSVSVDLDKDSNSFCLSSPGECDPRVKSLLLIASSFDYPPRLAESWKGNDPCTNWIGIACSNGNITVISLEKMELTGTISPEFGAIKSLQRIILGINNLTGMIPQELTTLPNLKTLDVSSNKLFGKVPGFRSNVVVNTNGNPDIGKDKSSLSSPGSSSPSGGSGSGINGDKDRRGMKSSTFIGIIVGSVLGGLLSIFLIGLLVFCWYKKRQKRFSGSESSNAVVVHPRHSGSDNESVKITVAGSSVSVGGISDTYTLPGTSEVGDNIQMVEAGNMLISIQVLRSVTNNFSSDNILGSGGFGVVYKGELHDGTKIAVKRMENGVIAGKGFAEFKSEIAVLTKVRHRHLVTLLGYCLDGNEKLLVYEYMPQGTLSRHLFEWSEEGLKPLLWKQRLTLALDVARGVEYLHGLAHQSFIHRDLKPSNILLGDDMRAKVADFGLVRLAPEGKGSIETRIAGTFGYLAPEYAVTGRVTTKVDVYSFGVILMELITGRKSLDESQPEESIHLVSWFKRMYINKEASFKKAIDTTIDLDEETLASVHTVAELAGHCCAREPYQRPDMGHAVNILSSLVELWKPSDQNPEDIYGIDLDMSLPQALKKWQAYEGRSDLESSTSSLLPSLDNTQMSIPTRPYGFAESFTSVDGR
B1 was tested, and the binding was “binds”.
